Taken from: PubChem BioAssay AID1259424 (University of Nebraska Medical Center, 2018)
The deposit covers about 14,000 reagents; this is an unselected part. 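Higher correlation or smaller distance means closer resemblance to KSR1 loss; control wells, including KSR1 knockdowns, recur on many plates.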 Some reagents were tested in more than one well and are listed for each. Not all columns of the deposit are shown. The record does not give: the time to read-out.

Aim: 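Seek colon cancer survival genes behaving like KSR1, using a six-gene signature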 (primary screen)
Cell system: human HCT116 colon cancer cells
Knock-down reagent: siRNA pool against human genes, 50 nM
Detection: 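Six signature mRNAs by branched-DNA multiplex assay, scaled to two housekeeping genes and non-targeting median, log2; matched to mean KSR1 knockdown profile by Pearson correlation and euclidean distance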
Reading the numbers: mean correlation with KSR1 profile: higher = expression change more like KSR1 knockdown; mean distance from KSR1 profile: higher = expression change less like KSR1 knockdown

FUT7 | mean correlation with KSR1 profile: -0.677; mean distance from KSR1 profile: 2.71
APEX2 | mean correlation with KSR1 profile: 0.091; mean distance from KSR1 profile: 3.95
CHRM4 | mean correlation with KSR1 profile: 0.345; mean distance from KSR1 profile: 1.29
TLR10 | mean correlation with KSR1 profile: -0.0961; mean distance from KSR1 profile: 2.27
PSTPIP1 | mean correlation with KSR1 profile: 0.0987; mean distance from KSR1 profile: 2.56
ACVRL1 | mean correlation with KSR1 profile: -0.000443; mean distance from KSR1 profile: 4.04
CD44 | mean correlation with KSR1 profile: -0.187; mean distance from KSR1 profile: 1.79
AKR1C3 | mean correlation with KSR1 profile: 0.27; mean distance from KSR1 profile: 1.99
IRX6 | mean correlation with KSR1 profile: 0.184; mean distance from KSR1 profile: 4
CALY | mean correlation with KSR1 profile: -0.606; mean distance from KSR1 profile: 1.89
SERPINB6 | mean correlation with KSR1 profile: -0.233; mean distance from KSR1 profile: 2.71
PCOLCE2 | mean correlation with KSR1 profile: -0.317; mean distance from KSR1 profile: 2.48
AOX1 | mean correlation with KSR1 profile: -0.137; mean distance from KSR1 profile: 1.92
LMF1 | mean correlation with KSR1 profile: 0.379; mean distance from KSR1 profile: 1.89
AGRN | mean correlation with KSR1 profile: -0.2; mean distance from KSR1 profile: 4.48
ANKRD2 | mean correlation with KSR1 profile: -0.469; mean distance from KSR1 profile: 4.08
RPL17 | mean correlation with KSR1 profile: 0.639; mean distance from KSR1 profile: 1.68
GPR135 | mean correlation with KSR1 profile: 0.272; mean distance from KSR1 profile: 1.46
LIPA | mean correlation with KSR1 profile: 0.122; mean distance from KSR1 profile: 2.53
DSP | mean correlation with KSR1 profile: 0.0907; mean distance from KSR1 profile: 3.55
SERPINB3 | mean correlation with KSR1 profile: -0.367; mean distance from KSR1 profile: 2.68
FOXI1 | mean correlation with KSR1 profile: 0.833; mean distance from KSR1 profile: 1.25
SEMA3C | mean correlation with KSR1 profile: -0.563; mean distance from KSR1 profile: 2.06
CACNB2 | mean correlation with KSR1 profile: 0.281; mean distance from KSR1 profile: 1.92
MYO9A | mean correlation with KSR1 profile: -0.342; mean distance from KSR1 profile: 2.22
CDC5L | mean correlation with KSR1 profile: -0.112; mean distance from KSR1 profile: 2.73
CRIPT | mean correlation with KSR1 profile: -0.45; mean distance from KSR1 profile: 1.21
GALC | mean correlation with KSR1 profile: 0.705; mean distance from KSR1 profile: 1.36
PCDHA7 | mean correlation with KSR1 profile: 0.152; mean distance from KSR1 profile: 1.93
STK38L | mean correlation with KSR1 profile: 0.254; mean distance from KSR1 profile: 2
S100A1 | mean correlation with KSR1 profile: -0.0801; mean distance from KSR1 profile: 3.49
NPHS2 | mean correlation with KSR1 profile: 0.66; mean distance from KSR1 profile: 1.67
TAPBPL | mean correlation with KSR1 profile: -0.488; mean distance from KSR1 profile: 2.35
COL15A1 | mean correlation with KSR1 profile: -0.00122; mean distance from KSR1 profile: 2.06
GRK2 | mean correlation with KSR1 profile: 0.146; mean distance from KSR1 profile: 2.12
GRK2 | mean correlation with KSR1 profile: 0.0235; mean distance from KSR1 profile: 3.23

Reformatted: 3 of the entries above.
gene	mean correlation with KSR1 profile	mean distance from KSR1 profile
AGRN	-0.2	4.48
ANKRD2	-0.469	4.08
RPL17	0.639	1.68
